Experimental data: the supplement of paper PMC10849652
The other results are listed elsewhere or left out.

Sequences of proteins named here, by UniProt entry; tags and fusion partners are left off. A change or cut given only in a name is not applied to a line headed by its entry.
UniProt Q9GZT8: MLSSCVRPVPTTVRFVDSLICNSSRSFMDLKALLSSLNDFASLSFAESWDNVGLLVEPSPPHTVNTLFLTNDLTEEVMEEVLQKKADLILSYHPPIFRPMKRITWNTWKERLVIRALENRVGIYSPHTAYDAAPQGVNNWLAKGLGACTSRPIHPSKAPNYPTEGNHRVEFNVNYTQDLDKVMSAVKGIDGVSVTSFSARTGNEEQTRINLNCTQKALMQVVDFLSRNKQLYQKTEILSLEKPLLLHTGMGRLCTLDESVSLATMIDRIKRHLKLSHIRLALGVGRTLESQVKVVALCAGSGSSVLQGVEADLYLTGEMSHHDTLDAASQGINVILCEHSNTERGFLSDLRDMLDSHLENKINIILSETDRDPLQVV
UniProt O43676, whole entry, looked up: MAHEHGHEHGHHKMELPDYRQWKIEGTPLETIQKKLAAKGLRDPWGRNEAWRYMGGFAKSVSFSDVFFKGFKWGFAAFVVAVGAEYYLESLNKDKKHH
UniProt Q8NBF2: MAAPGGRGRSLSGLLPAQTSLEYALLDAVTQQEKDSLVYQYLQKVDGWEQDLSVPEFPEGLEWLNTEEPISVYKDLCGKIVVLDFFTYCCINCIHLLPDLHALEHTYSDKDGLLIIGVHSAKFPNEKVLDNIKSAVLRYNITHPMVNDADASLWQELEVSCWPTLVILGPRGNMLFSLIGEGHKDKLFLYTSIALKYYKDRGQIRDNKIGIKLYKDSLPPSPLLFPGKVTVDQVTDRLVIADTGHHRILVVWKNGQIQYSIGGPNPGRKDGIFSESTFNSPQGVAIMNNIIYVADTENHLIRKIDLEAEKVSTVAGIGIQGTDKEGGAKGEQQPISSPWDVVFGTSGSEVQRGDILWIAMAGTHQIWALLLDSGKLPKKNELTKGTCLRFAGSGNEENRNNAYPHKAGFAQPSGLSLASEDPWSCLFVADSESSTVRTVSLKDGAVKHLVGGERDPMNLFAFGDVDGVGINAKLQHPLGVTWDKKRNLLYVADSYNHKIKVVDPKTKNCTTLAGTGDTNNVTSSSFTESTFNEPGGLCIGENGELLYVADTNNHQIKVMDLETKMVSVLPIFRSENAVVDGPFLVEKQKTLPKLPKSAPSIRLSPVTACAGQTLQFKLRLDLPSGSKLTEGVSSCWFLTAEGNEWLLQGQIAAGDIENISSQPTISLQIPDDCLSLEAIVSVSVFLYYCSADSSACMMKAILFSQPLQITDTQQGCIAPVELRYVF
UniProt Q9H9Q4: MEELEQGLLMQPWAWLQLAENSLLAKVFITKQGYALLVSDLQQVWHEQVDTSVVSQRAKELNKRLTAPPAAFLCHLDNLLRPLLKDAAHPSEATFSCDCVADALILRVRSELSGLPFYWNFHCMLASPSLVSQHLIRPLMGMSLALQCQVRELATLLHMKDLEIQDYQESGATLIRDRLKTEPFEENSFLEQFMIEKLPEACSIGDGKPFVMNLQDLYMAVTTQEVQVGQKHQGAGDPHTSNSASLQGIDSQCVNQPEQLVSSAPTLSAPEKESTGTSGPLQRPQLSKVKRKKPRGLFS
UniProt Q7L592: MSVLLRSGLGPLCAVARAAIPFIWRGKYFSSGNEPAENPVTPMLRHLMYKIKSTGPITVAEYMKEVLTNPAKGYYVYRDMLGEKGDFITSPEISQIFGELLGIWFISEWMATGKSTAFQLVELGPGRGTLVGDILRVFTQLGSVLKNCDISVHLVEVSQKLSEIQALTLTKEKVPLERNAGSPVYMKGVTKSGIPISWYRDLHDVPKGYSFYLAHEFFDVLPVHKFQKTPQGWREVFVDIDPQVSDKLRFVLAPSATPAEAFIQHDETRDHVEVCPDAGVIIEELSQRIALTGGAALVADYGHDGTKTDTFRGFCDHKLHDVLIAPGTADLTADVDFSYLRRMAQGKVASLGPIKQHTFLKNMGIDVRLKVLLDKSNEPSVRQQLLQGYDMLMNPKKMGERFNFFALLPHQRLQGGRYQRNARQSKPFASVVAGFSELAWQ
UniProt Q9Y221: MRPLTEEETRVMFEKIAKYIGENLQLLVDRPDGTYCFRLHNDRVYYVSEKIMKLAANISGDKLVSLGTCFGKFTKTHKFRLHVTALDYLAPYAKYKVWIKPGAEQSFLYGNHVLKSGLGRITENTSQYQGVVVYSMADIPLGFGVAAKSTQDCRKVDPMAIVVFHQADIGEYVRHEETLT
UniProt Q9BT67: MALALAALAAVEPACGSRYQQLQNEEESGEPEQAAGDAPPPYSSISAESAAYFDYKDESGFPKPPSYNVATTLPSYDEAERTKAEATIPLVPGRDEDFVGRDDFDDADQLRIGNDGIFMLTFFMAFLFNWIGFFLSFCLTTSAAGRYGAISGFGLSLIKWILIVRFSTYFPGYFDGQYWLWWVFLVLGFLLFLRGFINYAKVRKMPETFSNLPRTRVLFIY
UniProt O00217, whole entry, looked up: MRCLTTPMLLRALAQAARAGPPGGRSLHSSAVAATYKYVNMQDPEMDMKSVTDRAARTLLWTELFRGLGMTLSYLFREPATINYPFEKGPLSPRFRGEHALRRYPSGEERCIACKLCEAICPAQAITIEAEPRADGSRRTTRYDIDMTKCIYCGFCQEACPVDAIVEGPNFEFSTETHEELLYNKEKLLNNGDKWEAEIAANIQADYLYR
UniProt Q16795, whole entry, looked up: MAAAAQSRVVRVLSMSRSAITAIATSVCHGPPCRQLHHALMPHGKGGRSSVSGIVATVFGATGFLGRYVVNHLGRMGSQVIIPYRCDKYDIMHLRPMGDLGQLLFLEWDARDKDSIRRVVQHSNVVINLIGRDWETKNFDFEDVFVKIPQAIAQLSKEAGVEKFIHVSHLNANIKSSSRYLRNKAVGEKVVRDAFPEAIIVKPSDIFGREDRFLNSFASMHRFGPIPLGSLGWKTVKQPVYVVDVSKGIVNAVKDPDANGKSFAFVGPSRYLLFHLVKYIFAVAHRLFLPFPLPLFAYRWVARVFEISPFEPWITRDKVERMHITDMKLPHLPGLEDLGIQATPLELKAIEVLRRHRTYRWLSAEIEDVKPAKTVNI
UniProt P35240: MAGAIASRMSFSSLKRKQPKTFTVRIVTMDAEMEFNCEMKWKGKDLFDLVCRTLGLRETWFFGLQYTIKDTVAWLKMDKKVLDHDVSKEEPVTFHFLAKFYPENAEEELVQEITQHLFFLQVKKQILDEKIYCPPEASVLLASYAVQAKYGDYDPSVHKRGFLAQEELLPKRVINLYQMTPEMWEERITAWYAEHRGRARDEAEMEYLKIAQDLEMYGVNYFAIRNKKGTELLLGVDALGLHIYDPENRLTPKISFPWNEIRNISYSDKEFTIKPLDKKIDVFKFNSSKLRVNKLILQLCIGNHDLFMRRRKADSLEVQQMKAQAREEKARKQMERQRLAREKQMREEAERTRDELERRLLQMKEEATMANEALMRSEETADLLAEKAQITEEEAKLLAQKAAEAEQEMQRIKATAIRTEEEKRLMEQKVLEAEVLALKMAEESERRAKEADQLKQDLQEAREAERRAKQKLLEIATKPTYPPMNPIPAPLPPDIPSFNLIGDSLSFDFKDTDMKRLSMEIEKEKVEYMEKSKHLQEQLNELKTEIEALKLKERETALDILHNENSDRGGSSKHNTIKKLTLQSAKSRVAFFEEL
UniProt P17568, whole entry, looked up: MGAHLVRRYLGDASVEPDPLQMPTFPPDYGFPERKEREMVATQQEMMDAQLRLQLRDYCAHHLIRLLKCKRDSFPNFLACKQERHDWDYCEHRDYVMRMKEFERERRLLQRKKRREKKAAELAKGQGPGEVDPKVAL
UniProt Q7RTR2: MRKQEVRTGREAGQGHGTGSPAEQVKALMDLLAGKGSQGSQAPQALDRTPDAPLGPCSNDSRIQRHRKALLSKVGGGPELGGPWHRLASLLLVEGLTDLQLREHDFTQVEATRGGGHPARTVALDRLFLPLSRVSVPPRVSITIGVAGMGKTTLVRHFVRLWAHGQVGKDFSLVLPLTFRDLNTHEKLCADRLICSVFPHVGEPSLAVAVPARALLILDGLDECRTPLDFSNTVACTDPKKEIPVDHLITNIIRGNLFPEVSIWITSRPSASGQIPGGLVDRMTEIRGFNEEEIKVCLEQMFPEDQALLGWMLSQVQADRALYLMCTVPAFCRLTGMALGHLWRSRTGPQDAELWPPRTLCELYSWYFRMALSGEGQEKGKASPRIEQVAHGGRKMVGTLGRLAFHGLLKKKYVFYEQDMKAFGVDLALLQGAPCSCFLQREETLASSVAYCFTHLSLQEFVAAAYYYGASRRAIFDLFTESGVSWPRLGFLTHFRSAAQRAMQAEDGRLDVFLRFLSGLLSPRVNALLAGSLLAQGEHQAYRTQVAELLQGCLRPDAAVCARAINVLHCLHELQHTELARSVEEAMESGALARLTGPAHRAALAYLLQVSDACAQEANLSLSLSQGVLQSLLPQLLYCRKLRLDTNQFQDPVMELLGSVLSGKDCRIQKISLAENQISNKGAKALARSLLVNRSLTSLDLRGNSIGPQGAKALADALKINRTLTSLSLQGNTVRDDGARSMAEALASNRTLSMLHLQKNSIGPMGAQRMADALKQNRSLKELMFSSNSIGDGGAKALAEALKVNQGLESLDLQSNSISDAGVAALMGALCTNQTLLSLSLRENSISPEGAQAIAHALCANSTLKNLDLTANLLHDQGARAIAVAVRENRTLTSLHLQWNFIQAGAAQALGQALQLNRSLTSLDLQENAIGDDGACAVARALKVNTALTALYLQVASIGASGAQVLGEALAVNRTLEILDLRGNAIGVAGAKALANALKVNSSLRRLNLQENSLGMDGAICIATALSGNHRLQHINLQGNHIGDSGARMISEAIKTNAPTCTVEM
UniProt O43920, whole entry, looked up: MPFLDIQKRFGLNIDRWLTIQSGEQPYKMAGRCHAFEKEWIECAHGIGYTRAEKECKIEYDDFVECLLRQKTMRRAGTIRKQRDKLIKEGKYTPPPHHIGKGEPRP
UniProt P56181: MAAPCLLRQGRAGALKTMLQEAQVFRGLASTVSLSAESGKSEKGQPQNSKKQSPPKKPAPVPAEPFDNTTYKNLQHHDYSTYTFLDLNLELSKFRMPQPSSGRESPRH
UniProt Q96TA1: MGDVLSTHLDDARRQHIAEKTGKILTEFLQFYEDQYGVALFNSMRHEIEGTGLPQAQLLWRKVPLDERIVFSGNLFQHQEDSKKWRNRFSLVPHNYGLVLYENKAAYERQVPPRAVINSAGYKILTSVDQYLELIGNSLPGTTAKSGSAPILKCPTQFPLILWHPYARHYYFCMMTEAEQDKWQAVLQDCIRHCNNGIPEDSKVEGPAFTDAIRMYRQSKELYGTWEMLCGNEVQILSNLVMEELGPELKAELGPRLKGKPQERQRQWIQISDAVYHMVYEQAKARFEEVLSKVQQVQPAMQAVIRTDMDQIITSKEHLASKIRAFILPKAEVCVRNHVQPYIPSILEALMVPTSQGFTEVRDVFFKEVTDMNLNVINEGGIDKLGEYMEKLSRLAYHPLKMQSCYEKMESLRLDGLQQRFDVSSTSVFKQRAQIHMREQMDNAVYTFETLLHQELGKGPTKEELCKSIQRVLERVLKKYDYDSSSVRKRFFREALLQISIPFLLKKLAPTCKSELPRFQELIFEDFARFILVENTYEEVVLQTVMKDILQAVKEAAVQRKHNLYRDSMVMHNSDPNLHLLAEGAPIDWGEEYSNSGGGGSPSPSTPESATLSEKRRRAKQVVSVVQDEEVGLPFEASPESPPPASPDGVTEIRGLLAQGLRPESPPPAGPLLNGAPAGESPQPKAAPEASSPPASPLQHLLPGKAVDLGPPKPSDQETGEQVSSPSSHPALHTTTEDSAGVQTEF
UniProt Q8NHV4, whole entry, looked up: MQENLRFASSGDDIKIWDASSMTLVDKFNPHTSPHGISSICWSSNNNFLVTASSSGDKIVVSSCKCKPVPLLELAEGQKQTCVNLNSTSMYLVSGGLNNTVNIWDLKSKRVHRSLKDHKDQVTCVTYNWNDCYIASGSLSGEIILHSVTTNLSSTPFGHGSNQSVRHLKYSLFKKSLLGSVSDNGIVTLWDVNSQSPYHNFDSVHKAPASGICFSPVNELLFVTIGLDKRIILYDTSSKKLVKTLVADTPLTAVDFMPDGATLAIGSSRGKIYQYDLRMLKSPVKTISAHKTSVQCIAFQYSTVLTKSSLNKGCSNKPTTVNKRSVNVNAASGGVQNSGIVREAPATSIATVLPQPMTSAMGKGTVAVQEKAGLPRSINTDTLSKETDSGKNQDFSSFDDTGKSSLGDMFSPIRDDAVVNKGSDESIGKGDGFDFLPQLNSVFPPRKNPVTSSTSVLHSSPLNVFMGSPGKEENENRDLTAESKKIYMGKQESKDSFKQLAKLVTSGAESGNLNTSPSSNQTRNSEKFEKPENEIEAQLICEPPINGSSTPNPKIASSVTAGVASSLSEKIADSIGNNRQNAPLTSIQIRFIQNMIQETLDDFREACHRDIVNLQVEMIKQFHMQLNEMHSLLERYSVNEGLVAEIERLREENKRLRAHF
UniProt O95182, whole entry, looked up: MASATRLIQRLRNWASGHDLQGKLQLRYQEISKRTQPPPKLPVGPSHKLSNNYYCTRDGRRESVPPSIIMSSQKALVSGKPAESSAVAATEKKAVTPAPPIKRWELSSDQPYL
UniProt Q15843, whole entry, looked up: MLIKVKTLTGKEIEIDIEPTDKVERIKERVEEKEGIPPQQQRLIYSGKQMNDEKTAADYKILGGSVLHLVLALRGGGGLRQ

Assays:
Assay in all cases: log2 fold change, soluble protein after heating vs DMSO (PISA); higher = thermal stabilisation; K562 lysate, 10 uM; active = over 0.2 and 3.5 SD of the protein, either way, in both replicates (recomputed)
erlotinib = compound: C#Cc1cccc(Nc2ncnc3cc(OCCOC)c(OCCOC)cc23)c1 [erlotinib]
Method in brief: (§1)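 Values give the log-two fold change in thermal stability against solvent controls, from duplicates. Crude K562 extract at 1 mg/mL protein, made by dounce homogenisation in PBS pH 7.4 with 1 mM MgCl2, was treated with 10 μM compound for 30 min. After 3 min heating across 48°C-58°C, aliquots were pooled, adjusted to 0.5% NP-40 at 4°C and centrifuged at 21,000xg for 90 min. The supernatant was measured by TMTpro 16plex LC-MS/MS with channel sums equalised.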

[1] = compound: C/C(=N\NC(=O)C1=CC(=CC=C1)S(=O)(=O)N2CCOCC2)/C3=C(C=CC(=C3)Cl)O
Method in brief: as §1

[2] = compound: C1=CC(=CC=C1C2=NC3=C(N2)C=C(C=C3)C(=O)N)OC4=CC=C(C=C4)Cl
Method in brief: as §1

[3] = compound: C1=CC2=C(C=CC(=C2)/C=C\3/C(=O)NC(=NCC4=CC=CS4)S3)N=C1
Method in brief: as §1

[4] = compound: C1=CC2=NC=CN=C2C=C1/C=C/3\C(=O)NC(=O)S3
Method in brief: as §1

[5] = compound: C1=CC=C(C=C1)C2=NC(=C(N2)C3=CC=NC=C3)C4=CC(=C(C=C4)Cl)O
Method in brief: as §1

[6] = compound: C1=CC=C2C(=C1)C3=NNC4=CC=CC(=C43)C2=O
Method in brief: as §1

[7] = compound: C1CCN(C1)C(=O)NC2=CC=CC(=C2)NC3=NC=C(C(=N3)NCCC4=CN=CN4)Br
Method in brief: as §1

[8] = compound: C1CN(CCC1(CC2=CC=C(C=C2)Cl)N)C3=NC=NC4=C3C=CN4
Method in brief: as §1

IRAK-1-4 Inhibitor I = compound: C1COCCN1CCN2C3=CC=CC=C3N=C2NC(=O)C4=CC(=CC=C4)[N+](=O)[O-] [IRAK-1-4 Inhibitor I]
Method in brief: as §1

Measured: log2 fold change

NDE1 isoform 1 (UniProt Q9NXR1)
inactive: erlotinib -0.025 | [1] -0.044 | [2] 0.04 | [3] 0.008 | [4] -0.017 | [5] 0.117 | [6] 0.046 | [7] 0.017 | [8] -0.031 | IRAK-1-4 Inhibitor I 0.049

NFXL1 (UniProt Q6ZNB6)
inactive: erlotinib 0.024 | [1] 0.019 | [2] 0.077 | [3] 0.025 | [4] 0.019 | [5] -0.033 | [6] -0.188 | [7] -0.03 | [8] 0.062 | IRAK-1-4 Inhibitor I -0.057

NIF3L1 (UniProt Q9GZT8)
inactive: erlotinib -0.018 | [1] -0.07 | [2] 0.009 | [3] 0.008 | [4] 0.028 | [5] 0.016 | [6] -0.001 | [7] 0.007 | [8] 0.017 | IRAK-1-4 Inhibitor I 0.033

NDUFS7 (UniProt O75251)
inactive: erlotinib -0.003 | [1] 0.027 | [2] -0.126 | [3] -0.026 | [4] 0.032 | [5] 0.044 | [6] 0.046 | [7] -0.028 | [8] 0.009 | IRAK-1-4 Inhibitor I 0.006

NDUFB3 (UniProt O43676)
inactive: erlotinib -0.049 | [1] -0.066 | [2] -0.08 | [3] 0.027 | [4] 0.005 | [5] -0.021 | [6] -0.009 | [7] 0.035 | [8] 0.012 | IRAK-1-4 Inhibitor I -0.039

NHLRC2 (UniProt Q8NBF2)
inactive: erlotinib 0.003 | [1] -0.022 | [2] -0.006 | [3] -0.012 | [4] -0.018 | [5] 0.012 | [6] 0.009 | [7] -0.009 | [8] 0.011 | IRAK-1-4 Inhibitor I -0.006

NHEJ1 (UniProt Q9H9Q4)
inactive: erlotinib -0.025 | [1] -0.063 | [2] 0.077 | [3] -0.073 | [4] -0.06 | [5] -0.025 | [6] 0.042 | [7] 0.011 | [8] 0.039 | IRAK-1-4 Inhibitor I 0

NDUFAF7 (UniProt Q7L592)
inactive: erlotinib -0.076 | [1] -0.03 | [2] 0.04 | [3] 0.03 | [4] 0.072 | [5] -0.022 | [6] -0.006 | [7] -0.021 | [8] 0.049 | IRAK-1-4 Inhibitor I 0.028

NDUFAB1 (UniProt O14561)
inactive: erlotinib 0.059 | [1] 0.055 | [2] -0.101 | [3] 0.003 | [4] 0.126 | [5] -0.05 | [6] 0.019 | [7] 0.142 | [8] 0.106 | IRAK-1-4 Inhibitor I -0.011

NDUFS1 isoform 2 (UniProt P28331)
inactive: erlotinib -0.006 | [1] 0.033 | [2] -0.045 | [3] 0.025 | [4] 0.027 | [5] -0.033 | [6] -0.027 | [7] -0.052 | [8] 0.006 | IRAK-1-4 Inhibitor I 0.006

NEU1 (UniProt Q99519)
inactive: erlotinib -0.035 | [1] -0.102 | [2] 0.052 | [3] -0.042 | [4] 0.008 | [5] 0.086 | [6] -0.074 | [7] -0.039 | [8] 0.023 | IRAK-1-4 Inhibitor I -0.008

NIP7 (UniProt Q9Y221)
inactive: erlotinib 0.001 | [1] 0.01 | [2] -0.024 | [3] 0.05 | [4] -0.023 | [5] 0.021 | [6] 0 | [7] 0.05 | [8] -0.035 | IRAK-1-4 Inhibitor I -0.011

NDFIP1 (UniProt Q9BT67)
inactive: erlotinib 0.002 | [1] -0.206 | [2] 0.109 | [3] 0.021 | [4] -0.111 | [5] 0.037 | [6] -0.094 | IRAK-1-4 Inhibitor I 0.039

NDUFA8 (UniProt P51970)
inactive: erlotinib -0.04 | [1] 0.06 | [2] -0.069 | [3] 0.021 | [4] -0.019 | [5] 0.126 | [6] -0.01 | [7] 0.032 | [8] 0.013 | IRAK-1-4 Inhibitor I -0.026

NDUFS8 (UniProt O00217)
inactive: erlotinib -0.005 | [1] 0.073 | [2] -0.05 | [3] 0.031 | [4] 0.159 | [5] -0.058 | [6] 0.061 | [7] 0.033 | [8] 0.09 | IRAK-1-4 Inhibitor I 0.034

NDUFA9 (UniProt Q16795)
inactive: erlotinib 0.026 | [1] 0.097 | [2] 0.011 | [3] 0.061 | [4] 0.004 | [5] -0.01 | [6] -0.031 | [7] -0.037 | [8] 0.031 | IRAK-1-4 Inhibitor I 0.041

NF2 (UniProt P35240)
inactive: erlotinib -0.012 | [1] 0.061 | [2] 0.003 | [3] 0.026 | [4] -0.026 | [5] -0.01 | [6] -0.02 | [7] -0.046 | [8] 0.026 | IRAK-1-4 Inhibitor I 0.011

NDUFB7 (UniProt P17568)
inactive: erlotinib -0.03 | [1] -0.078 | [2] -0.031 | [3] -0.058 | [4] -0.017 | [5] 0 | [6] 0.05 | [7] 0.041 | [8] -0.085 | IRAK-1-4 Inhibitor I 0.076

NEK3 (UniProt P51956)
inactive: erlotinib 0.009 | [1] 0.195 | [2] 0.068 | [3] 0.077 | [4] -0.112 | [5] -0.067 | [6] -0.074 | [7] 0.063 | [8] -0.033 | IRAK-1-4 Inhibitor I 0.049

NLRC3 isoform 2 (UniProt Q7RTR2)
inactive: erlotinib -0.017 | [1] -0.062 | [2] 0.018 | [3] -0.109 | [4] -0.075 | [5] 0.043 | [6] 0.027 | [7] 0.026 | [8] -0.108 | IRAK-1-4 Inhibitor I 0.014

NDUFS5 (UniProt O43920)
inactive: erlotinib -0.023 | [1] -0.029 | [2] 0.028 | [3] -0.008 | [4] -0.029 | [5] 0.002 | [6] -0.047 | [7] 0 | [8] -0.002 | IRAK-1-4 Inhibitor I 0.03

Retrieved one by one from the list above, two records:
NDUFS5 (UniProt O43920)
inactive: erlotinib -0.023 | [1] -0.029 | [2] 0.028 | [3] -0.008 | [4] -0.029 | [5] 0.002 | [6] -0.047 | [7] 0 | [8] -0.002 | IRAK-1-4 Inhibitor I 0.03

NLRC3 isoform 2 (UniProt Q7RTR2)
inactive: erlotinib -0.017 | [1] -0.062 | [2] 0.018 | [3] -0.109 | [4] -0.075 | [5] 0.043 | [6] 0.027 | [7] 0.026 | [8] -0.108 | IRAK-1-4 Inhibitor I 0.014

Further entries.

NDUFV3 (UniProt P56181)
inactive: erlotinib 0 | [1] -0.103 | [2] 0.094 | [3] 0.002 | [4] -0.068 | [5] 0.038 | [6] 0.02 | [7] -0.004 | [8] -0.006 | IRAK-1-4 Inhibitor I 0.006

NIBAN2 (UniProt Q96TA1)
inactive: erlotinib -0.016 | [1] 0.002 | [2] 0.051 | [3] 0.01 | [4] -0.007 | [5] 0 | [6] 0 | [7] 0.013 | [8] 0.011 | IRAK-1-4 Inhibitor I -0.013

NEDD1 isoform 3 (UniProt Q8NHV4)
inactive: erlotinib 0.055 | [1] -0.013 | [2] 0.057 | [3] 0.057 | [4] -0.022 | [5] 0.019 | [6] 0.005 | [7] 0.034 | [8] -0.05 | IRAK-1-4 Inhibitor I 0.048

NDUFA7 (UniProt O95182)
inactive: erlotinib -0.024 | [1] 0.016 | [2] -0.035 | [3] 0.011 | [4] 0.007 | [5] -0.022 | [6] 0.027 | [7] -0.035 | [8] -0.024 | IRAK-1-4 Inhibitor I 0.014

NFATC1 (UniProt O95644)
inactive: erlotinib -0.002 | [1] -0.431 | [2] 0.045 | [3] -0.04 | [4] -0.02 | [5] 0.065 | [6] 0.009 | [7] 0.044 | [8] 0.092 | IRAK-1-4 Inhibitor I 0.077

NFS1 (UniProt Q9Y697)
inactive: erlotinib 0.003 | [1] 0.014 | [2] 0.025 | [3] 0.014 | [4] 0.002 | [5] -0.004 | [6] -0.017 | [7] 0.014 | [8] 0.042 | IRAK-1-4 Inhibitor I 0.017

NDUFA2 (UniProt O43678)
inactive: erlotinib -0.039 | [1] 0.091 | [2] -0.02 | [3] -0.047 | [4] -0.031 | [5] -0.031 | [6] 0.038 | [7] -0.016 | [8] 0.089 | IRAK-1-4 Inhibitor I -0.013

NEDD8 (UniProt Q15843)
inactive: erlotinib 0.018 | [1] -0.019 | [2] 0 | [3] 0.031 | [4] -0.047 | [5] 0.011 | [6] -0.053 | [7] 0.026 | [8] 0.07 | IRAK-1-4 Inhibitor I 0

NELFB isoform 2 (UniProt Q8WX92)
inactive: erlotinib 0.014 | [1] 0.024 | [2] -0.013 | [3] -0.036 | [4] -0.006 | [5] 0.003 | [6] -0.023 | [7] -0.004 | [8] 0.021 | IRAK-1-4 Inhibitor I -0.002

NDUFB5 (UniProt O43674)
inactive: erlotinib -0.021 | [1] -0.041 | [2] -0.065 | [3] 0.02 | [4] 0.014 | [5] -0.042 | [6] -0.017 | [7] 0.044 | [8] 0.007 | IRAK-1-4 Inhibitor I -0.013
